Results from PMC4545792.

T1: FLAG-PPOX (human protoporphyrinogen oxidase, carboxy terminal FLAG) (human) (UniProt P50336)
T1 sequence: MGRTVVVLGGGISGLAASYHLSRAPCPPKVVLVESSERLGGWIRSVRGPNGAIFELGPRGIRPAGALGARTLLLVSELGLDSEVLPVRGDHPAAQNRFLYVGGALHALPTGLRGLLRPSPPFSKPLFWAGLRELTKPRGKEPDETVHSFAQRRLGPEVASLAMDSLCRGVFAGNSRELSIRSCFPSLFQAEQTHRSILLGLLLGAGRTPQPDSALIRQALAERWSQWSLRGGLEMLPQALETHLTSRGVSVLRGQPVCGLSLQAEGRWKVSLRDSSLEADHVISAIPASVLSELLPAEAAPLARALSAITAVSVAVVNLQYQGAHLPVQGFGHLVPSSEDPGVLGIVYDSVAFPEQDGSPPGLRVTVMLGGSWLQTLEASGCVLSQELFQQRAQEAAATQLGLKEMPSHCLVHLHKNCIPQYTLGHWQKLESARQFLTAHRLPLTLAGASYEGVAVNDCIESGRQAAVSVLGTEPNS

T2: FLAG-FECH (human ferrochelatase, wild type) (human) (UniProt P22830)
T2 sequence: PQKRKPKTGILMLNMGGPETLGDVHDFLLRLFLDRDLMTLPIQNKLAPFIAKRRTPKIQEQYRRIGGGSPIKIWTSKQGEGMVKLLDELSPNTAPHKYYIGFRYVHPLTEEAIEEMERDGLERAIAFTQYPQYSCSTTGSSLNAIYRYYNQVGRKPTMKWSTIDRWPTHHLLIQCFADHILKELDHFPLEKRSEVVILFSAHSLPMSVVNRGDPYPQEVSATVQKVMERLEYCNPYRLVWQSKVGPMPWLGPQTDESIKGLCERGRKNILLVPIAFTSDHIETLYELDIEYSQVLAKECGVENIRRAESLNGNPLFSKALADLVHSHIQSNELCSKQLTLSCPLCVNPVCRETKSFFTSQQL

T3: FLAG-FECH M76H variant (human ferrochelatase) (human) (UniProt P22830)
T3 sequence: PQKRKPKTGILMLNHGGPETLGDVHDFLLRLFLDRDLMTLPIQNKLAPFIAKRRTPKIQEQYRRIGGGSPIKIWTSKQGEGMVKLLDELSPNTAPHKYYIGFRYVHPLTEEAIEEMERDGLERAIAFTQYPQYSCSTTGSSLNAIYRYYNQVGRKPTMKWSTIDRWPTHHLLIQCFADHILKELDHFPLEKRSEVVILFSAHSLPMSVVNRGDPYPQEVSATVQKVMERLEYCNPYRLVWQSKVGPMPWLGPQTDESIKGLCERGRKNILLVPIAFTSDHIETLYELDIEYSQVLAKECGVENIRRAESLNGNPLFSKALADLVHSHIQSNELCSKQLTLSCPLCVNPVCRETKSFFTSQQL

T4: FLAG-FECH E343K variant (human ferrochelatase) (human) (UniProt P22830)
T4 sequence: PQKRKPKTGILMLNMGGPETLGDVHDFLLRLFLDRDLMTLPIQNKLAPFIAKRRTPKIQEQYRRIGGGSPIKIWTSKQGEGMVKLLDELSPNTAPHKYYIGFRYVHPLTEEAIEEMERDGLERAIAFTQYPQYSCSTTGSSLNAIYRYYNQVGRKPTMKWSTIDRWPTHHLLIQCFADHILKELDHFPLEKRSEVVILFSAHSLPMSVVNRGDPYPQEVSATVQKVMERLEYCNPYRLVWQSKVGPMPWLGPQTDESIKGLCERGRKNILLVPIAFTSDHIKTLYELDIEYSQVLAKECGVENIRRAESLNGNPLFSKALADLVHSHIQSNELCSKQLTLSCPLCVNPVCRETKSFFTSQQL


How the values were obtained:
Experiment in all cases: affinity purification with mass spectrometry; FLAG-tagged human bait stably expressed in MEL cells induced 72 h with 1.5% DMSO; isolated mitochondria lysed in 50 mM Tris-HCl pH 7.5, 1 mM EDTA, 150 mM NaCl, 1% Nonidet P-40; anti-FLAG agarose overnight at 4°C, washes with 0.1% Nonidet P-40, elution with FLAG peptide, MudPIT MS; empty vector as control
[1] = target: T1, FLAG-PPOX (human protoporphyrinogen oxidase, carboxy terminal FLAG) (human)
[2] = target: T2, FLAG-FECH (human ferrochelatase, wild type) (human)
[3] = target: T3, FLAG-FECH M76H variant (human ferrochelatase) (human)
[4] = target: T4, FLAG-FECH E343K variant (human ferrochelatase) (human)

| Binder | binding [1] | binding [2] | binding [3] | binding [4] |
| --- | --- | --- | --- | --- |
| mouse metalloreductase steap3 (steap3) (enzyme, UniProt Q8CI59 1-488) MSGEMDKPLISRRLVDSDGSLAEVPKEAPKVGILGSGDFARSLATRLVGSGFSVVVGSRNPKRTAGLFPSLAQVTFQEEAVSSPEVIFVAVFREHYSSLCSLADQLAGKILVDVSNPTEKEHLQHRQSNAEYLASLFPACTVVKAFNVISAWALQAGPRDGNRQVLICSDQPEAKRTISEMARAMGFTPLDMGSLASAREVEAIPLRLLPSWKVPTLLALGLFVCFYTYNFIRDVLQPYIRKDENKFYKMPLSVVNTTLPCVAYVLLSLVYLPGVLAAALQLRRGTKYQRFPDWLDHWLQHRKQIGLLSFFFAMLHALYSFCLPLRRSHRYDLVNLAVKQVLANKSRLWVEEEVWRMEIYLSLGVLALGMLSLLAVTSLPSIANSLNWKEFSFVQSTLGFVALILSTMHTLTYGWTRAFEENHYKFYLPPTFTLTLLLPCVIILAKGLFLLPCLSRRLTKIRRGWEKDGAVKFMLPGDHTQGEKTSHV | binds | binds | binds | binds |
| mouse ADP/ATP translocase 1 slc25a4 (ant1) (protein, UniProt P48962 1-298) MGDQALSFLKDFLAGGIAAAVSKTAVAPIERVKLLLQVQHASKQISAEKQYKGIIDCVVRIPKEQGFLSFWRGNLANVIRYFPTQALNFAFKDKYKQIFLGGVDRHKQFWRYFAGNLASGGAAGATSLCFVYPLDFARTRLAADVGKGSSQREFNGLGDCLTKIFKSDGLKGLYQGFSVSVQGIIIYRAAYFGVYDTAKGMLPDPKNVHIIVSWMIAQSVTAVAGLVSYPFDTVRRRMMMQSGRKGADIMYTGTLDCWRKIAKDEGANAFFKGAWSNVLRGMGGAFVLVLYDEIKKYV | binds | binds | binds | binds |
| mouse ADP/ATP translocase 2 slc25a5 (ant2) (protein, UniProt P51881 1-298) MTDAAVSFAKDFLAGGVAAAISKTAVAPIERVKLLLQVQHASKQITADKQYKGIIDCVVRIPKEQGVLSFWRGNLANVIRYFPTQALNFAFKDKYKQIFLGGVDKRTQFWRYFAGNLASGGAAGATSLCFVYPLDFARTRLAADVGKAGAEREFKGLGDCLVKIYKSDGIKGLYQGFNVSVQGIIIYRAAYFGIYDTAKGMLPDPKNTHIFISWMIAQSVTAVAGLTSYPFDTVRRRMMMQSGRKGTDIMYTGTLDCWRKIARDEGSKAFFKGAWSNVLRGMGGAFVLVLYDEIKKYT | binds | binds | binds | binds |
| mouse 2-oxoglutarate/malate carrier slc25a11 (ogc) (protein, UniProt Q9CR62 1-314) MAATASPGAGRMDGKPRTSPKSVKFLFGGLAGMGATVFVQPLDLVKNRMQLSGEGAKTREYKTSFHALTSILKTEGLKGIYTGLSAGLLRQATYTTTRLGIYTVLFERLTGADGTPPGFLLKALIGMTAGATGAFVGTPAEVALIRMTADGRLPADQRRGYKNVFNALVRIAREEGVPTLWRGCIPTMARAVVVNAAQLASYSQSKQFLLDSGYFSDNILCHFCASMISGLVTTAASMPVDIVKTRIQNMRMIDGKPEYKNGLDVLLKVVRYEGFFSLWKGFTPYYARLGPHTVLTFIFLEQMNKAYKRLFLSG | binds | binds | binds | binds |
| mouse glutaredoxin 5 (glrx5) (protein, UniProt Q80Y14 32-152) ASSGGQAEQLDALVKKDKVVVFLKGTPEQPQCGFSNAVVQILRLHGVRDYAAYNVLDDPELRQGIKDYSNWPTIPQVYLNGEFVGGCDILLQMHQNGDLVEELKKLGIRSALVDEKDQDSK | binds | binds | binds | binds |

Second part, the binder after the results:

| binding [1] | binding [2] | binding [3] | binding [4] | Binder |
| --- | --- | --- | --- | --- |
| binds | – | – | – | mouse transmembrane protein 14C (tmem14c) (protein, UniProt Q9CQN6 1-114) MQKDSGPLMPLHYFGFGYAALVATGGIIGYAKAGSVPSLAAGLFFGGLAGLGAYQLSQDPRNVWVFLATSGTLAGIMGMRFYNSGKFMPAGLIAGASLLMVAKVGISLLSSPHP |
| – | no binding | no binding | no binding | mouse mitoferrin (protein, UniProt Q920G8 1-338) MELRRGGVGNQAAGRRMDGDCRDGGCGSKDAGSEDYENLPTSASVSTHMTAGAMAGILEHSIMYPVDSVKTRMQSLNPDPKARYTSIYGALKRIMHTEGFWRPLRGLNVMMMGAGPAHAMYFACYENMKRTLNDVFSHQGNSHLANGVAGSMATLLHDAVMNPAEVVKQRLQMYNSQHQSAFSCIRTVWRTEGLGAFYRSYTTQLTMNIPFQSIHFITYEFLQEQVNPRRDYNPQSHIISGGLAGALAAAATTPLDVCKTLLNTQENMALSLANVSGRLSGMANAFRTVYQLNGLAGYFKGIQARVIYQMPSTAISWSVYEFFKYILTKRQLENRTLY |
| binds | binds | binds | binds | mouse protoporphyrinogen oxidase (enzyme, UniProt P51175 1-477) MGRTVIVLGGGISGLAASYHLIRGPSPPKVILVEGSKRLGGWIRSIRGSDGAIFELGPRGIRPAGALGARTLLLVSELGLESEVLPVRGDHPAAQNRFLYVGGTLHPLPSGLRGLLRPSPPFSKPLFWAGLRELLKPRGKEPDETVHSFAQRRLGPEVASLAMDSLCRGVFAGNSRELSIRSCFPSLFQAEQTHRSILLGLLLGAGQSPQPDSSLIRQARAERWSQWSLRGGLEVLPQALHNHLASKGVTVLSGQPVCGLSLQPEGRWKVSLGDSSLEADHIISAIPASELSKLLPAEAAPLARILSTIKAVSVAVVNLQYRGACLPVQGFGHLVPSSEDPTVLGIVYDSVAFPEQDGNPPSLRVTVMLGGYWLQKLKAAGHQLSPELFQQQAQEAAATQLGLKEPPSHCLVHLHKNCIPQYTIGHWQKLDSAMQFLTAQRLPLTLAGASYEGVAVNDCIESGRQAAVAVLGTESNS |
| binds | binds | binds | binds | mouse sideroflexin-1 (sfxn1) (protein, UniProt Q99JR1 1-322) MSGEVPPNINIKEPRWDQSTFIGRASHFFTVTDPRNILLTNEQLENARKVVHDYRQGIVPAGLTENELWRAKYAYDSAFHPDTGEKMTLIGRMSAQVPMNMTITGCMMTFYRTTPAVLFWQWINQSFNAVVNYTNRSGDAPLTVNELGTAYVSATTGAVATALGLNALTKRVSPLIGRFVPFAAVAAANCINIPLMRQRELKVGIPVTDENGTRLGESTNAAKQAITQVVISRILMAAPGMAIPPFIMNTLEKKAFLKRFPWMSAPIQVTLVGFCLVFATPLCCALFPQKSSMSVTSLEDELQASIQRTHPEIRRVYFNKGL |

These are yes or no findings as the source states them, for the method shown. In cells and extracts the contact can be indirect. A yes stands for co-enrichment or nearness to the bait. Other partners may have been found. For some assays here: A no says only that the protein was not detected with the bait. Sequences can lack the tags named with a protein.
